In the supplement of paper PMC3334620:
Whole data set: some 33,000 sequences, median “E-score (-0.5 to 0.5)” near -0.0014, cut for the highest 2% near 0.25. The list shows a part of the results.

What follows are sequences tested against T1, Cad1 (UniProt P24813) (assay: PBM E-score (8-mer binding enrichment) (E-score (-0.5 to 0.5)); higher = stronger / more preferred TF binding). Conditions: protein concentration: 100 nM; construct: GST-full length.
T1 sequence: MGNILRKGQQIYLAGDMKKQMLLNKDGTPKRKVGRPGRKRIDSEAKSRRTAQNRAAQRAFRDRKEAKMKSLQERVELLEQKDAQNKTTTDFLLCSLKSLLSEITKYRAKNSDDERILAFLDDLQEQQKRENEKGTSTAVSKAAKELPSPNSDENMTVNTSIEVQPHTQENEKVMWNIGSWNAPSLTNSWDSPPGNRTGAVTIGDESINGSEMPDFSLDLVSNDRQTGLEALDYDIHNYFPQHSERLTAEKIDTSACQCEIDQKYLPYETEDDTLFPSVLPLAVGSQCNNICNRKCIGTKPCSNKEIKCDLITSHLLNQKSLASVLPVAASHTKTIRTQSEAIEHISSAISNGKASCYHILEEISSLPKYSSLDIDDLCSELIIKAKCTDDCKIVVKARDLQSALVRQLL
Summary of the method: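 Each ungapped eight-base word and its reverse complement, pooled, received an E-score from the Universal PBM Analysis Suite. Underlying scans, normalised with masliner, recorded fluorescent anti-GST bound to GST-tagged yeast transcription factors. These were applied at about 100-200 nM to universal all-10-mer Agilent arrays double-stranded by primer extension.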

Sequence	PBM E-score
ATTGTCGC	0.115
ATATGAGG	0.00714
CGCAGCGA	0.175
CGCGCGTC	0.138
CGCAGGCC	0.0274
CGAAGCCC	-0.163
GGCCACAA	-0.0332
AAGCAGTG	0.0829
GAAACGGA	0.195
CAATATAA	0.283
TGCGAGCA	0.0777
CGTACGGC	-0.0837
ATATAACG	0.225
CACGTCAC	0.144
GGGATCCA	-0.0302
CGTGTAGA	0.0137
AGGTGACG	0.0321
AAGAGTCG	0.0695
CCCGAGAA	0.0293
ATTGAACA	0.0432
ATACCCAG	-0.229
GGTGACTA	0.114

Sequence	PBM E-score
CCTGATGC	0.142
AACCCATT	-0.00078
ACGGCTAG	-0.176
CGGCCAGA	0.149
ACTGTATG	0.0155
CTTAGATC	-0.0415
CTGAACAA	0.155
CGAAATCG	0.124
GATGGTCA	-0.0321
AAATCAGG	0.0752
CCAGAGGA	-0.228
ACACGAGG	0.0213
CCGAACGC	0.107
AAGGGTAA	-0.04
GAATGGAA	0.0297
GGATCGGA	-0.0778
CCTCCGAG	-0.0215
TGCAAGAA	-0.113
GGAGCTGA	-0.127
ACTGCTCC	0.0071
AGTCGGGC	-0.0725
AAGTCACC	-0.142

Sequence	PBM E-score
CTAAGCTA	0.135
AACGCGTG	0.247
CTTCCTCC	-0.248
AGGTTCAG	-0.0895
CTTAAAAA	0.0846
ACGTCGGA	-0.093
ACAGCTGA	-0.0375
AGAATTAT	0.191
ACCAACCC	-0.0921
CATGGACG	0.00038
CGCGCCGC	0.112
CTGTGCCA	-0.0318
CGCTCCCG	-0.0235
GTCTCCCA	-0.177
ATTTGATG	0.148
ACGCTCTG	0.0162
CCACCATA	-0.0653
ACATTCAC	0.0778
ACGTTAAC	0.102
CGAAGATA	0.238
CCTGCGCG	0.142
CCGCCTCA	-0.208

Reprinted at random: three entries already listed.
Sequence	PBM E-score
GTCTCCCA	-0.177
ACGTCGGA	-0.093
AGAATTAT	0.191

(next part)

Sequence	PBM E-score
AGAAGGGG	-0.333
CATCCTTA	0.064
GAAATCTC	-0.0123
GGCCGTCA	-0.128
ATTGACTA	0.0806
CCAGGGAG	-0.403
CTCTTGGA	-0.0273
CTGTTCCA	0.00315
AAGCAGGC	-0.148
TCTGCACA	0.0825
GACTGTTA	0.0212
CCGAGTTA	-0.0933
ATCATCCG	-0.0578
ACCCGGCT	-0.0947
GACGGCCC	-0.34
TCGGCACA	-0.0457
AGGAGTCC	-0.242
ATGGGTGC	-0.103
CTTCGTGA	-0.0549
CTGCACAA	0.0256
